Source: publication PMC4068158
Like-named read-outs stand apart in the source and are kept apart here. These are yes or no findings as the source states them, for the method shown. In cells and extracts the contact can be indirect. These calls come from enrichment with a bait or labelling near it, and not all partners need be listed. For some assays here: Sequences can lack the tags named with a protein. Blank lines part the entries; values can stand above or below the molecule they belong to.

Protein sequences, listed by entry. Tags and fused reporters are not part of them. Lines headed by an entry give the natural chain unless they say otherwise; changes in a name come on top. Residues count along the entry.
UniProt O95292: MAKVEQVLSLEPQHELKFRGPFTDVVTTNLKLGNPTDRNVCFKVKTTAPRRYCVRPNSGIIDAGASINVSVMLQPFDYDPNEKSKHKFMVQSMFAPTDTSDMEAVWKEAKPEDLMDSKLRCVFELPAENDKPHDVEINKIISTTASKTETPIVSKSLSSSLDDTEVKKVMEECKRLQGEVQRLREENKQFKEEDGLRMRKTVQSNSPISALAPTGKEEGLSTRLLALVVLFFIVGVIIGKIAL
UniProt Q9UNN5: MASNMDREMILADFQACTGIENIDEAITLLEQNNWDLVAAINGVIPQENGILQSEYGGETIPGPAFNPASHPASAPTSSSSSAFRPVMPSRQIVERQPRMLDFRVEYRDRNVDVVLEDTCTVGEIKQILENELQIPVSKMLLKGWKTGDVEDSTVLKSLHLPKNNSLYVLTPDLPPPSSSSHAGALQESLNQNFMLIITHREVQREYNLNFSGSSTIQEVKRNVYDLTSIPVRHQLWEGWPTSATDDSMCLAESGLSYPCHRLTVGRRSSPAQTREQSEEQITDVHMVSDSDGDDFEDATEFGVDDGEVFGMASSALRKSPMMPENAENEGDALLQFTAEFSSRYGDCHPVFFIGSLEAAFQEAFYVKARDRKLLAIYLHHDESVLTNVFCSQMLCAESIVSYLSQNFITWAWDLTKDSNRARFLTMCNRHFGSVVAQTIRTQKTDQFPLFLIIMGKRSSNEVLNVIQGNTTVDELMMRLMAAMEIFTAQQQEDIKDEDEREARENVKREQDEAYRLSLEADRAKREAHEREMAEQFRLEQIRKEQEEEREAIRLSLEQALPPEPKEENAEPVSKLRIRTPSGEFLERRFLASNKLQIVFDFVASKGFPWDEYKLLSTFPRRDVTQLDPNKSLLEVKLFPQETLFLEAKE
Flag-FAF1 wild type: residues 2-650 of Q9UNN5
UniProt O43681: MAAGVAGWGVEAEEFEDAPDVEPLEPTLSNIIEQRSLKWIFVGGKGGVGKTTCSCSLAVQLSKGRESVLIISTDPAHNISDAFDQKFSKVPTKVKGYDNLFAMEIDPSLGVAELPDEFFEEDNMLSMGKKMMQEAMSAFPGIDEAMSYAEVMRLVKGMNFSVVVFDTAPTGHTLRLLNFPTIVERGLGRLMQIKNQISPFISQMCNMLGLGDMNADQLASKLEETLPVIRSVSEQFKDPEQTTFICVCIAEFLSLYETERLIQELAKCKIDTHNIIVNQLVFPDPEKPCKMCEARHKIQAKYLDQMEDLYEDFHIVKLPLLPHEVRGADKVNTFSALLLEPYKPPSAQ

How the values were obtained:
[1] = biological target: endogenous VAPB (human cells) (human (endogenous in U2OS, HeLa, SH-SY5Y)) (UniProt O95292); assay: affinity purification with mass spectrometry; endogenous VAPB immunoprecipitated from HeLa cells; uncoupled Protein A-beads as control
[2] = biological target: endogenous VAPB (human cells) (human (endogenous in U2OS, HeLa, SH-SY5Y)) (UniProt O95292); assay: affinity purification with mass spectrometry; SILAC; endogenous VAPB immunoprecipitated from mixed light and heavy U2OS lysates, MG132 for 2 or 6 hr against untreated
[3] = biological target: T1, Flag-VAPA wild type (human) (UniProt Q9P0L0); assay: affinity purification with mass spectrometry; Flag-VAPA or Flag-VAPB immunoprecipitated with anti-Flag beads from U2OS cells; untransfected cells as control
T1 sequence: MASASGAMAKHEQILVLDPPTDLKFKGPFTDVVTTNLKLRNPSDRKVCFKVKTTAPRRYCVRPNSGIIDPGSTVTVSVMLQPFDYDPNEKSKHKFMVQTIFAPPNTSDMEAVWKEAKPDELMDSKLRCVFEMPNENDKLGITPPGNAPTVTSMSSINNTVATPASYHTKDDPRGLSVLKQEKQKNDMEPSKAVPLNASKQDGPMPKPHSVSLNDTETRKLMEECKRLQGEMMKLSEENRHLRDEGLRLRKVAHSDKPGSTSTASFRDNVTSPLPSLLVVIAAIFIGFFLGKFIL

[4] = biological target: Flag-VAPB full length wild type (human) (UniProt O95292); assay: as above
[5] = biological target: T1, Flag-VAPA wild type (human); assay: as above; remark: listed apart in the source
[6] = biological target: Flag-VAPB full length wild type (human) (UniProt O95292); assay: as above; remark: listed apart in the source
[7] = biological target: Flag-FAF1 wild type (human) (UniProt Q9UNN5); assay: affinity purification with mass spectrometry; Flag-FAF1 immunoprecipitated with anti-Flag beads from U2OS cells, untreated or MG132 for 2 or 6 hr; untransfected cells as control

Molecule: endogenous ASNA1 (human cells) (from UniProt O43681 1-348)
- binding [1]: binds
- binding [2]: binds
- binding [3]: binds
- binding [4]: binds

B4: endogenous RAB3GAP1 (human cells) (protein, UniProt Q15042 1-981)
chain: MAADSEPESEVFEITDFTTASEWERFISKVEEVLNDWKLIGNSLGKPLEKGIFTSGTWEEKSDEISFADFKFSVTHHYLVQESTDKEGKDELLEDVVPQSMQDLLGMNNDFPPRAHCLVRWYGLREFVVIAPAAHSDAVLSESKCNLLLSSVSIALGNTGCQVPLFVQIHHKWRRMYVGECQGPGVRTDFEMVHLRKVPNQYTHLSGLLDIFKSKIGCPLTPLPPVSIAIRFTYVLQDWQQYFWPQQPPDIDALVGGEVGGLEFGKLPFGACEDPISELHLATTWPHLTEGIIVDNDVYSDLDPIQAPHWSVRVRKAENPQCLLGDFVTEFFKICRRKESTDEILGRSAFEEEGKETADITHALSKLTEPASVPIHKLSVSNMVHTAKKKIRKHRGVEESPLNNDVLNTILLFLFPDAVSEKPLDGTTSTDNNNPPSESEDYNLYNQFKSAPSDSLTYKLALCLCMINFYHGGLKGVAHLWQEFVLEMRFRWENNFLIPGLASGPPDLRCCLLHQKLQMLNCCIERKKARDEGKKTSASDVTNIYPGDAGKAGDQLVPDNLKETDKEKGEVGKSWDSWSDSEEEFFECLSDTEELKGNGQESGKKGGPKEMANLRPEGRLYQHGKLTLLHNGEPLYIPVTQEPAPMTEDLLEEQSEVLAKLGTSAEGAHLRARMQSACLLSDMESFKAANPGCSLEDFVRWYSPRDYIEEEVIDEKGNVVLKGELSARMKIPSNMWVEAWETAKPIPARRQRRLFDDTREAEKVLHYLAIQKPADLARHLLPCVIHAAVLKVKEEESLENISSVKKIIKQIISHSSKVLHFPNPEDKKLEEIIHQITNVEALIARARSLKAKFGTEKCEQEEEKEDLERFVSCLLEQPEVLVTGAGRGHAGRIIHKLFVNAQRAAAMTPPEEELKRMGSPEERRQNSVSDFPPPAGREFILRTTVPRPAPYSKALPQRMYSVLTKEDFRLAGAFSSDTSFF
- binding [5]: binds
- binding [6]: binds
- binding [1]: binds

B5: endogenous RAB3GAP2 (human cells) (protein, UniProt Q9H2M9 1-1393)
chain: MACSIVQFCYFQDLQAARDFLFPHLREEILSGALRRDPSKSTDWEDDGWGAWEENEPQEPEEEGNTCKTQKTSWLQDCVLSLSPTNDLMVIAREQKAVFLVPKWKYSDKGKEEMQFAVGWSGSLNVEEGECVTSALCIPLASQKRSSTGRPDWTCIVVGFTSGYVRFYTENGVLLLAQLLNEDPVLQLKCRTYEIPRHPGVTEQNEELSILYPAAIVTIDGFSLFQSLRACRNQVAKAAASGNENIQPPPLAYKKWGLQDIDTIIDHASVGIMTLSPFDQMKTASNIGGFNAAIKNSPPAMSQYITVGSNPFTGFFYALEGSTQPLLSHVALAVASKLTSALFNAASGWLGWKSKHEEEAVQKQKPKVEPATPLAVRFGLPDSRRHGESICLSPCNTLAAVTDDFGRVILLDVARGIAIRMWKGYRDAQIGWIQTVEDLHERVPEKADFSPFGNSQGPSRVAQFLVIYAPRRGILEVWSTQQGPRVGAFNVGKHCRLLYPGYKIMGLNNVTSQSWQPQTYQICLVDPVSGSVKTVNVPFHLALSDKKSERAKDMHLVKKLAALLKTKSPNLDLVETEIKELILDIKYPATKKQALESILASERLPFSCLRNITQTLMDTLKSQELESVDEGLLQFCANKLKLLQLYESVSQLNSLDFHLDTPFSDNDLALLLRLDEKELLKLQALLEKYKQENTRTNVRFSDDKDGVLPVKTFLEYLEYEKDVLNIKKISEEEYVALGSFFFWKCLHGESSTEDMCHTLESAGLSPQLLLSLLLSVWLSKEKDILDKPQSICCLHTMLSLLSKMKVAIDETWDSQSVSPWWQQMRTACIQSENNGAALLSAHVGHSVAAQISNNMTEKKFSQTVLGADSEALTDSWEALSLDTEYWKLLLKQLEDCLILQTLLHSKGNTQTSKVSSLQAEPLPRLSVKKLLEGGKGGIADSVAKWIFKQDFSPEVLKLANEERDAENPDEPKEGVNRSFLEVSEMEMDLGAIPDLLHLAYEQFPCSLELDVLHAHCCWEYVVQWNKDPEEARFFVRSIEHLKQIFNAHVQNGIALMMWNTFLVKRFSAATYLMDKVGKSPKDRLCRRDVGMSDTAMTSFLGSCLDLLQILMEADVSRDEIQVPVLDTEDAWLSVEGPISIVELALEQKHIHYPLVEHHSILCSILYAVMRFSLKTVKPLSLFDSKGKNAFFKDLTSIQLLPSGEMDPNFISVRQQFLLKVVSAAVQAQHSATKVKDPTEEATPTPFGKDQDWPALAVDLAHHLQVSEDVVRRHYVGELYNYGVDHLGEEAILQVHDKEVLASQLLVLTGQRLAHALLHTQTKEGMELLARLPPTLCTWLKAMDPQDLQNTEVPIATTAKLVNKVIELLPEKHGQYGLALHLIEAVEAISLPSL
- binding [5]: binds
- binding [6]: binds
- binding [1]: binds

Results, then the molecule that gave them:

- binding [1]: binds
- binding [3]: binds
- binding [4]: binds
Molecule: endogenous FAF1 (human cells) (from UniProt Q9UNN5 1-650)

- binding [5]: binds
- binding [6]: binds
B1: endogenous WDR44 (human cells) (protein, UniProt Q5JSH3 1-913)
chain: MASESDTEEFYDAPEDVHLGGGYPVGSPGKVGLSTFKETENTAYKVGNESPVQELKQDVSKKIIESIIEESQKVLQLEDDSLDSKGKELSDQATASPIVARTDLSNIPGLLAIDQVLPEESQKAESQNTFEETELELKKCFPSDETCEKPVDETTKLTQTSSTEQLNVLETETEVLNKEAVEVKGGGDVLEPVSSDSLSTKDFAAVEEVAPAKPPRHLTPEPDIVASTKKPVPARPPPPTNFPPPRPPPPSRPAPPPRKRKSELEFETLKTPDIDVPKENITSDSLLTASMASESTVKDSQPSLDLASATSGDKIVTAQENGKAPDGQTVAGEVMGPQRPRSNSGRELTDEEILASVMIKNLDTGEEIPLSLAEEKLPTGINPLTLHIMRRTKEYVSNDAAQSDDEEKLQSQPTDTDGGRLKQKTTQLKKFLGKSVKRAKHLAEEYGERAINKVKSVRDEVFHTDQDDPSSSDDEGMPYTRPVKFKAAHGFKGPYDFDQIKVVQDLSGEHMGAVWTMKFSHCGRLLASAGQDNVVRIWALKNAFDYFNNMRMKYNTEGRVSPSPSQESLSSSKSDTDTGVCSGTDEDPDDKNAPFRQRPFCKYKGHTADLLDLSWSKNYFLLSSSMDKTVRLWHISRRECLCCFQHIDFVTAIAFHPRDDRYFLSGSLDGKLRLWNIPDKKVALWNEVDGQTKLITAANFCQNGKYAVIGTYDGRCIFYDTEHLKYHTQIHVRSTRGRNKVGRKITGIEPLPGENKILVTSNDSRIRLYDLRDLSLSMKYKGYVNSSSQIKASFSHDFTYLVSGSEDKYVYIWSTYHDLSKFTSVRRDRNDFWEGIKAHNAVVTSAIFAPNPSLMLSLDVQSEKSEGNEKSEDAEVLDATPSGIMKTDNTEVLLSADFTGAIKVFVNKRKNVS

- binding [6]: binds
- binding [2]: binds
- binding [7]: binds
B2: endogenous DDOST (human cells) (protein, UniProt P39656 43-456)
chain: SGPRTLVLLDNLNVRETHSLFFRSLKDRGFELTFKTADDPSLSLIKYGEFLYDNLIIFSPSVEDFGGNINVETISAFIDGGGSVLVAASSDIGDPLRELGSECGIEFDEEKTAVIDHHNYDISDLGQHTLIVADTENLLKAPTIVGKSSLNPILFRGVGMVADPDNPLVLDILTGSSTSYSFFPDKPITQYPHAVGKNTLLIAGLQARNNARVIFSGSLDFFSDSFFNSAVQKAAPGSQRYSQTGNYELAVALSRWVFKEEGVLRVGPVSHHRVGETAPPNAYTVTDLVEYSIVIQQLSNGKWVPFDGDDIQLEFVRIDPFVRTFLKKKGGKYSVQFKLPDVYGVFQFKVDYNRLGYTHLYSSTQVSVRPLQHTQYERFIPSAYPYYASAFSMMLGLFIFSIVFLHMKEKEKSD

- binding [2]: binds
- binding [7]: binds
B3: endogenous UBL4A (human cells) (protein, UniProt P11441 1-157)
chain: MQLTVKALQGRECSLQVPEDELVSTLKQLVSEKLNVPVRQQRLLFKGKALADGKRLSDYSIGPNSKLNLVVKPLEKVLLEEGEAQRLADSPPPQVWQLISKVLARHFSAADASRVLEQLQRDYERSLSRLTLDDIERLASRFLHPEVTETMEKGFSK
